Results published in publication PMC5167132.
Results are given in words; binding and its absence hold for the method and conditions named. Binding seen in cells or lysates may run through a third protein. Some results given as binding are weak or reduced against the parent protein; the word gives no strength.

Protein sequences, listed by entry. Tags and fused reporters are not part of them. Lines headed by an entry give the natural chain unless they say otherwise; changes in a name come on top.
UniProt Q99720: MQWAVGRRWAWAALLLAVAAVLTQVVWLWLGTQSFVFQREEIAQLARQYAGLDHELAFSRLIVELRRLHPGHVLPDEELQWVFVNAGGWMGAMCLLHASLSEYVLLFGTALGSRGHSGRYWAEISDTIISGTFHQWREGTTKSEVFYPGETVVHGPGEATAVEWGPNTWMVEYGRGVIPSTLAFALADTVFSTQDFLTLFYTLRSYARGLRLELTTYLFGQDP
UniProt Q14573: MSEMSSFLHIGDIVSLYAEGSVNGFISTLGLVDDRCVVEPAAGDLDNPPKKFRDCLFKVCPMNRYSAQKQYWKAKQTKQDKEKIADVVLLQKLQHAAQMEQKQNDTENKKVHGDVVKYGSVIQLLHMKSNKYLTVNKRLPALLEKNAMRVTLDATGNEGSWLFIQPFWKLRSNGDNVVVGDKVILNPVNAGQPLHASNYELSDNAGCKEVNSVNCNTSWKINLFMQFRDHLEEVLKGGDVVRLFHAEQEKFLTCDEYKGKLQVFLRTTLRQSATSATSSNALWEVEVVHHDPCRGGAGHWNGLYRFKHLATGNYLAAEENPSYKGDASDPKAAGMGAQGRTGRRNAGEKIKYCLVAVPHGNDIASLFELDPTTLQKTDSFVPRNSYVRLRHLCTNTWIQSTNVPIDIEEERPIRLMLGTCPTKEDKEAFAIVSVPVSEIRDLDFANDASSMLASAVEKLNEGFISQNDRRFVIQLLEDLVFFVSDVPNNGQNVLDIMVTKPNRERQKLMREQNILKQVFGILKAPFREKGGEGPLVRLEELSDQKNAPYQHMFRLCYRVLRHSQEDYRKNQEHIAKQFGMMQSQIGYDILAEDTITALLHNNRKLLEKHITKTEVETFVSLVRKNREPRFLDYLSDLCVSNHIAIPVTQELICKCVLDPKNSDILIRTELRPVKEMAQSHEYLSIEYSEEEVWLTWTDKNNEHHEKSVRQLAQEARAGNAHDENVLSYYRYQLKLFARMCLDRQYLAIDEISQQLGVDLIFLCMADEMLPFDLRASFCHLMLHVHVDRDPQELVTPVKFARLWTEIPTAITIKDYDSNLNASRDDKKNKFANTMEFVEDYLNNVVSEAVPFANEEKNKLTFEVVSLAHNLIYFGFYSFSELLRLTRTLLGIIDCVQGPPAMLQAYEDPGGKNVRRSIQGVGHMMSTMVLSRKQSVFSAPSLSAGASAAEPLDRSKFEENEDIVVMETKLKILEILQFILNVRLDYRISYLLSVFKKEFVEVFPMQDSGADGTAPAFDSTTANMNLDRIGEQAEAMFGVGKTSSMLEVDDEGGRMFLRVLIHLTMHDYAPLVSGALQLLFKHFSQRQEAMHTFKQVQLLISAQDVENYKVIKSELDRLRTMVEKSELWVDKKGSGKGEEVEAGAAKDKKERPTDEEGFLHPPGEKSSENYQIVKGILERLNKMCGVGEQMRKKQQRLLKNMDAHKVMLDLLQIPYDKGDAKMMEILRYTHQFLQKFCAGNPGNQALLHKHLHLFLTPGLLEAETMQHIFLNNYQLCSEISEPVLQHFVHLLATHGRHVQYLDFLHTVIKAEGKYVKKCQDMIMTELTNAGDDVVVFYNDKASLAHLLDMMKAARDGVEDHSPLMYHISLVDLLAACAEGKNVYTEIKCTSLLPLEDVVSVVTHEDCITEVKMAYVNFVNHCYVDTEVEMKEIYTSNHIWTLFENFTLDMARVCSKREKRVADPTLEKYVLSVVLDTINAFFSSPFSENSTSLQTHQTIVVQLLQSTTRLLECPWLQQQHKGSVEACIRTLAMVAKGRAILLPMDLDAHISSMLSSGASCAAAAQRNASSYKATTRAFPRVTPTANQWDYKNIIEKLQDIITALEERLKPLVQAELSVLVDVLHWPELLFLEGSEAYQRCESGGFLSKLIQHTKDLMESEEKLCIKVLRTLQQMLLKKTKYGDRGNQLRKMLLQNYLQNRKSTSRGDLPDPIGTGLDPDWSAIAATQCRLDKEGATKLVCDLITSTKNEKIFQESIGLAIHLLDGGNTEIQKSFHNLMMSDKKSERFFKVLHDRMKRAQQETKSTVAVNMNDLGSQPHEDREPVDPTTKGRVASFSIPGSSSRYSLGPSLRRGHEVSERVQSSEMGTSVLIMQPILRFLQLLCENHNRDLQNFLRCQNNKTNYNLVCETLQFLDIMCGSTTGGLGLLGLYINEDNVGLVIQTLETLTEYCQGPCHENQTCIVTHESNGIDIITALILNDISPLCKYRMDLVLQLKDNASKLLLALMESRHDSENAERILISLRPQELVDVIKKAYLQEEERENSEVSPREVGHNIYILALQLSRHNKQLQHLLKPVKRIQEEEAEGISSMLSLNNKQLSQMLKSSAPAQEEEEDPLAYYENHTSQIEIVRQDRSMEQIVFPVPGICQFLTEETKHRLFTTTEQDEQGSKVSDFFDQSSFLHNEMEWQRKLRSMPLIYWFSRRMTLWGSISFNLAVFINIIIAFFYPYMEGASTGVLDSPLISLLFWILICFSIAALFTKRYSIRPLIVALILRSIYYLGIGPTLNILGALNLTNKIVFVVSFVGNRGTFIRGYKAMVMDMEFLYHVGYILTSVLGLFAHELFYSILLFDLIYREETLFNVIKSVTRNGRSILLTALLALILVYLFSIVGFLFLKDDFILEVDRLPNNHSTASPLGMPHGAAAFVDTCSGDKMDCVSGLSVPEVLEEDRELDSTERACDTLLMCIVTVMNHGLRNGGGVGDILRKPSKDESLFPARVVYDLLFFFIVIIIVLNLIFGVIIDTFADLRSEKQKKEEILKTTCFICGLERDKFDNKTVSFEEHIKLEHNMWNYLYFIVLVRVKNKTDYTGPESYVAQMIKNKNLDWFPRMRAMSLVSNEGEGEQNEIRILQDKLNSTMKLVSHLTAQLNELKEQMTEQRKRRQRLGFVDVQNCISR

Tests used:
[1] = biological target: sigma 1 receptor (Sig1R) E102Q, ALS-linked variant, FLAG tagged (UniProt Q99720); assay: co-IP; Sig1R-FLAG variants transfected in N2a-IP3R3 cells; lysis in 50 mM Tris-HCl (pH 8.0), 150 mM NaCl, 1% CHAPS; anti-FLAG M2 overnight at 4°C, protein G Sepharose; eluted with FLAG peptide; immunoblotting for IP3R3
[2] = biological target: sigma 1 receptor (Sig1R), wild type, FLAG tagged (UniProt Q99720); assay: as above

- binding [1]: no binding
- binding [2]: binds
Substance: human inositol 1,4,5-triphosphate receptor type 3 (IP3R3), C-terminal HA tag (from UniProt Q14573 1-2671)
